These are yes or no findings as the source states them, for the method shown. In cells and extracts the contact can be indirect. For some of these results: Binding calls can cover weak binding; strength is not graded here.
How the values were obtained:
[1] = target: FLAG-tagged McPV2 E6 (Mastomys coucha papillomavirus 2) (UniProt Q06RH5); assay: co-IP; FLAG-E6 co-expressed in 293T cells with an excess of both HA-E6AP_Ub- and HA-MAML1 (and HA-GFP); lysed 18 hrs later in 0.5X IGEPAL lysis buffer; anti-FLAG M2 beads 1 hr; blots with anti-HA and anti-FLAG
[2] = target: FLAG-tagged OcPV1 E6 (Oryctolagus cuniculus papillomavirus 1) (UniProt Q9J032); assay: as above
[3] = target: FLAG-tagged OaPV3 E6 (Ovies aries papillomavirus 3) (UniProt D5FL25); assay: as above
[4] = target: FLAG-tagged OcPV1 E6 (Oryctolagus cuniculus papillomavirus 1) (UniProt Q9J032); assay: co-IP; 293T cells co-transfected with myc-MAML3, HA-MAML1, HA-MAML2, HA-E6AP_Ub-, HA-GFP and FLAG-E6; FLAG antibody beads

By UniProt entry, the sequences of proteins in these tests, tags left out.
UniProt Q92585: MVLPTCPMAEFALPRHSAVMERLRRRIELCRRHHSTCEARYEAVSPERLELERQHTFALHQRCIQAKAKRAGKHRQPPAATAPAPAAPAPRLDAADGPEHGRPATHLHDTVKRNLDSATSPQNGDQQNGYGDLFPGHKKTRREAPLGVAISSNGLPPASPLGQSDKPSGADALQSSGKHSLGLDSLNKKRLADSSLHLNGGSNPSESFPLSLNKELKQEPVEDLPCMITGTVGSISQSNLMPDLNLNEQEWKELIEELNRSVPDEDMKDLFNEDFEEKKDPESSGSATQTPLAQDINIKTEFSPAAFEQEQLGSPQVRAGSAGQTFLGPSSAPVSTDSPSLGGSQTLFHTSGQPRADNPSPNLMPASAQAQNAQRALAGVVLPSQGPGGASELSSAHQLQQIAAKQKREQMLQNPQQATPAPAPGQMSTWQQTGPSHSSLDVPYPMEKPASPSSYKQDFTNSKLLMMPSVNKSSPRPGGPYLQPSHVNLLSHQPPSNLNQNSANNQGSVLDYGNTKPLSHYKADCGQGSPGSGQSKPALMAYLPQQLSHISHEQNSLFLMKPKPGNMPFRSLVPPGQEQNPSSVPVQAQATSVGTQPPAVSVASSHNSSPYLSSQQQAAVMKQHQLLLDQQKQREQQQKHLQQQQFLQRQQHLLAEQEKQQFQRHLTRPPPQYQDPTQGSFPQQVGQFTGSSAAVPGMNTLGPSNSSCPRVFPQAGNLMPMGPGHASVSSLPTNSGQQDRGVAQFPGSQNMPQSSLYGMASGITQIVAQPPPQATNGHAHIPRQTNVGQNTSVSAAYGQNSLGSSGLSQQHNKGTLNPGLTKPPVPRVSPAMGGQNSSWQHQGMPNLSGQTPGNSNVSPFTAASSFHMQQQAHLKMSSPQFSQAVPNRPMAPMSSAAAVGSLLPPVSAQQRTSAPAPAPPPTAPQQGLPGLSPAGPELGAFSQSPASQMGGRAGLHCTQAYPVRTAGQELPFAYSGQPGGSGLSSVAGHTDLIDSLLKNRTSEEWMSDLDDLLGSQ
UniProt Q96JK9: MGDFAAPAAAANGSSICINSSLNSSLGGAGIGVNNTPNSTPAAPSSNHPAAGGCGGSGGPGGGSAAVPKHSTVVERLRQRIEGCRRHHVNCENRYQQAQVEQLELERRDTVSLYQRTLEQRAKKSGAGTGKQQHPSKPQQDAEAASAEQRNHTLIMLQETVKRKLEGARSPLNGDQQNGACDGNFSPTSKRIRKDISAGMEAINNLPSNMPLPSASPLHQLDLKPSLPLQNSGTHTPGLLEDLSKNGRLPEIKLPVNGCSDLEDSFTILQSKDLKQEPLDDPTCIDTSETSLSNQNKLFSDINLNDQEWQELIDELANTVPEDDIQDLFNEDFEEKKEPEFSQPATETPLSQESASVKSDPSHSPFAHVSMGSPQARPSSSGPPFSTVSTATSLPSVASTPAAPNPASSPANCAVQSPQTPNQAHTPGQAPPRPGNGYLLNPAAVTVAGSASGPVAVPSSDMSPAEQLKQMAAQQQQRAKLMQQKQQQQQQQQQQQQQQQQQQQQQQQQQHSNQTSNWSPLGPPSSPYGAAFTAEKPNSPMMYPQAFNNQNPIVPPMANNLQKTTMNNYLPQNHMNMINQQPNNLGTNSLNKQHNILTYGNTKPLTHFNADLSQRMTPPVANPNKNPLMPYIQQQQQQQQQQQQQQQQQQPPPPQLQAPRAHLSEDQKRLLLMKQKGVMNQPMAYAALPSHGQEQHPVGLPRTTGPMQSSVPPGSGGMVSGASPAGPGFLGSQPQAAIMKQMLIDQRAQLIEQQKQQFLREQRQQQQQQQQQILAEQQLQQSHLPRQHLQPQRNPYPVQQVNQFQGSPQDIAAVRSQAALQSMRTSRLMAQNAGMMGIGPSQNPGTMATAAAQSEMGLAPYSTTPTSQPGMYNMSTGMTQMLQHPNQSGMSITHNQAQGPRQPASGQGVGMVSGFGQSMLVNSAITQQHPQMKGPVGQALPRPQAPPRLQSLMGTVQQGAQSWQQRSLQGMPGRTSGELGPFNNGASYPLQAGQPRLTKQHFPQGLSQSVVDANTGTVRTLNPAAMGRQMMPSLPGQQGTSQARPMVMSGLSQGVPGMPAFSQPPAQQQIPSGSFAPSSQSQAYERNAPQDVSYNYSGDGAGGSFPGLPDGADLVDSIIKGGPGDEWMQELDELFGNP

Substance	binding [1]	binding [2]	binding [3]	binding [4]
HA-tagged MAML1 (from UniProt Q92585 1-1016)	binds weakly	no binding	binds	
myc-MAML3 (from UniProt Q96JK9 1-1138)				no binding

Source: PMC5760104
